Experimental data: patent US7008666B2, “Method of inhibiting overactivity of phagocytes or lymphocytes in an individual” (Hormos Nutraceutical Oy Ltd., priority 2001, dated 2006)
Some results were stated once for a whole list of compounds, not compound by compound. Some ranges recur; such a range may be that of the whole group of compounds.

The compounds below were run on Jurkat T-cells (assay: Fas-induced apoptosis, annexin V-FITC flow cytometry). Conditions: 30 μM lignan, 45 min pre-treatment, plus 100 ng/ml anti-CD95 IgM for 2 h; Fas alone 20%.
Format: cell-based, human
With COc1cc(CC2C(=O)OCC2C(O)c2ccc(O)c(OC)c2)ccc1O (stereo not drawn) [Hydroxymatairesinol, hydroxymatairesinol] the “Fas-induced apoptosis in Jurkat T-cells” value was 50–60%. For COc1cc(C[C@H]2COC(=O)[C@@H]2Cc2ccc(O)c(OC)c2)ccc1O [Matairesinol, matairesinol], the “Fas-induced apoptosis in Jurkat T-cells” value was 50–60%. In the case of O=C1OC[C@H](Cc2cccc(O)c2)[C@H]1Cc1cccc(O)c1 [enterolactone], the “Fas-induced apoptosis in Jurkat T-cells” value is reported as 50–60%.
